Assay results from publication PMC7432914, “Corynebacterium glutamicum CrtR and Its Orthologs in Actinobacteria: Conserved Function and Application as Genetically Encoded Biosensor for Detection of Geranylgeranyl Pyrophosphate” (International Journal of Molecular Sciences, 2020).
For at least one entry, the source does not settle the construct or the ends of the probe. The comparison behind a weaker result is the experiment's own reference, which may not be listed here. Protein sequences can lack the tags named with them.

Test system: T1, CrtR ortholog (CrtRPc) (Pseudarthrobacter chlorophenolicus DSM 12829)
T1 sequence (looked up, limits assumed): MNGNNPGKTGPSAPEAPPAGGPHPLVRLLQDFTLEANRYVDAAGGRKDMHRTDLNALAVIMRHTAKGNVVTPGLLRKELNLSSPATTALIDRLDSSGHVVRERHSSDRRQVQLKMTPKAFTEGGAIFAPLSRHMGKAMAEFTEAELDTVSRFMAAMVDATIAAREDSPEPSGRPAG
Assay: EMSA
Settings: GGPP (100-650 uM), inhibits binding; 50 mM Tris-HCl pH 7.5, 10% glycerol, 50 mM KCl, 10 mM MgCl2, 0.5 mM EDTA; 20 uL, 30-90 ng DNA, 30 min at room temperature; recombinant protein; protein details: N-terminal His-tag (pET16b), not removed; probe letters rebuilt from the primers and the genome

“TGCCTTCCATGCGGATGGTCCACGCGGGACAAAGCGGAGTAGGATTGGTTCCACATTAGACTATCTCCATGATAGAGATAAGTGCCAGTCAAGCTTTTTCAACGGGGGCCTCCGCCGGGGGCTTCCACGGCTGAGCCAGGTAATGCCAAGGCAGCTGAAGTAATATCCCTCAGGGCCTGTGCGCAAAGACGGACGGCCCCACGAACTCCAGGAGGTGACCATGAACGGCAACAATCCGGGCA (double strand) [P. chlorophenolicus crtR-mmpl intergenic region (PcrtR)]”: binds more weakly.
